Experimental data from article PMC6054203.

Tests used:
[1] = target: T1, YFP-CIPK9 (Arabidopsis thaliana) (UniProt Q9MAM1); assay: FRET or BRET; FRET by acceptor bleaching, CFP and YFP fusions co-expressed in N. benthamiana cells, confocal microscopy; at least seven cells
T1 sequence: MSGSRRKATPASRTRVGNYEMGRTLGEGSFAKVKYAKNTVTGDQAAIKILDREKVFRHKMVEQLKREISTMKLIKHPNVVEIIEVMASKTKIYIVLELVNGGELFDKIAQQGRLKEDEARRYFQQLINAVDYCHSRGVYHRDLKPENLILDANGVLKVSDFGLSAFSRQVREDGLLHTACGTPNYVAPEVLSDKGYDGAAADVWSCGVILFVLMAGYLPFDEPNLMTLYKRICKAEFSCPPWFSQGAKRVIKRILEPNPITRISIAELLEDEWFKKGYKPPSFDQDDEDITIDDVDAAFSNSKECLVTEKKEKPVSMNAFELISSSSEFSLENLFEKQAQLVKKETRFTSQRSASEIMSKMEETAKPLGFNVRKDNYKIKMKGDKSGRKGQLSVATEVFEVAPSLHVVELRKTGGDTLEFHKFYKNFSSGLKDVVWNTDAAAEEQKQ

[2] = target: AP2C1 deletion fragment K2 (lacks the KIM domain), two-hybrid fusion (Arabidopsis thaliana); assay: two-hybrid; yeast strain AH109 co-transformed with AD (pGAD.GH) and BD (pGBT9.BS) fusions; growth on SC-LWH and on SC-LWH with 0.5 and 3.0 mM 3-AT
[3] = target: AP2C1 deletion fragment KIM (kinase-interacting motif domain), two-hybrid fusion (Arabidopsis thaliana); assay: as above

## K2 fragment of AP2C1 (lacks the KIM domain) fused to cyan fluorescent protein (Arabidopsis thaliana) (domain or fragment)
[1]
  binding: no binding

B1: CBL-interacting protein kinase 9 (CIPK9), two-hybrid fusion (enzyme, UniProt Q9MAM1 1-447)
chain: MSGSRRKATPASRTRVGNYEMGRTLGEGSFAKVKYAKNTVTGDQAAIKILDREKVFRHKMVEQLKREISTMKLIKHPNVVEIIEVMASKTKIYIVLELVNGGELFDKIAQQGRLKEDEARRYFQQLINAVDYCHSRGVYHRDLKPENLILDANGVLKVSDFGLSAFSRQVREDGLLHTACGTPNYVAPEVLSDKGYDGAAADVWSCGVILFVLMAGYLPFDEPNLMTLYKRICKAEFSCPPWFSQGAKRVIKRILEPNPITRISIAELLEDEWFKKGYKPPSFDQDDEDITIDDVDAAFSNSKECLVTEKKEKPVSMNAFELISSSSEFSLENLFEKQAQLVKKETRFTSQRSASEIMSKMEETAKPLGFNVRKDNYKIKMKGDKSGRKGQLSVATEVFEVAPSLHVVELRKTGGDTLEFHKFYKNFSSGLKDVVWNTDAAAEEQKQ
[2]
  binding: no binding
[3]
  binding: binds

Results are given in words; binding and its absence hold for the method and conditions named. For part of these data: Binding can be weak; no strength is given. Sequences can lack the tags named with a protein. For part of these data: In cells and extracts the contact can be indirect.
